The source of these data is US20050107432A1, “Sigma receptor binder containing indanone derivative” (priority 2002, published 2005).

Counter-ions that a name gives are not always drawn.

This assay concerns the target Sigma receptor. Kind of assay: Sigma receptor binding assay (3H-DTG, guinea pig brain crude membrane fraction). As to conditions: inhibition of 3H-DTG binding to guinea pig brain crude membrane fraction, 25° C., 1 hour. The procedure:
Sigma Receptor Binding Assay
(1) Preparation of Receptor
Ten male guinea pigs (Crj, Hartley, from Charles River Japan, Inc.) (body weight: 234 g to 260 g) were decapitated, exsanguinated and died. The brain was immediately removed, homogenized with ten volumes of 50 mM Tris-HCl (pH 7.4) using a Teflon homogenizer and was centrifuged at a rate of 50000× g at 4° C. for 20 minutes. The washing procedure was repeated once more under the same conditions, and the resulting crude membrane fraction was subjected to the assay.
The filter paper was transferred to a vial for radioactivity measurement, mixed with 5 mL of a liquid scintillation cocktail (Atomlight, from PACKARD), and the radioactivity on the filter was determined by a liquid scintillation counter (Model 1500, from PACKARD) for 2 minutes. The specific binding and the non-specific binding in the absence of the test compound were determined in the same way as above except for using 50% DMSO solution instead of the test compound and using a 100 μM Haloperidol solution instead of the test compound, respectively.
(3) Determination of Inhibition
The inhibitions of the test compound at individual concentrations were determined from the ratio of the specific binding in the presence of the test compound to the specific binding in the absence thereof. […]

Consider `COc1cc2c(cc1OC)C(=O)C(CC1CCN(Cc3ccccc3)CC1)C2` (stereo not shown) [Control, 1-benzyl-4-[(5,6-dimethoxy-1-indanon)-2-yl]methylpiperidine hydrochloride, reference compound], for which the IC50 – broadly, the concentration needed to halve the response being measured – stood at 18.7 nM. This lies in the double-digit nanomolar range.
